Results on 1 substance are retold here after PMC9198048, “Ursodeoxycholic acid reduces antitumor immunosuppression by inducing CHIP-mediated TGF-β degradation” (Nature Communications, 2022).

Sequences of proteins named here, by UniProt entry; tags and fusion partners are left off. Residues count along the entry.
UniProt P04202, residues 30-390: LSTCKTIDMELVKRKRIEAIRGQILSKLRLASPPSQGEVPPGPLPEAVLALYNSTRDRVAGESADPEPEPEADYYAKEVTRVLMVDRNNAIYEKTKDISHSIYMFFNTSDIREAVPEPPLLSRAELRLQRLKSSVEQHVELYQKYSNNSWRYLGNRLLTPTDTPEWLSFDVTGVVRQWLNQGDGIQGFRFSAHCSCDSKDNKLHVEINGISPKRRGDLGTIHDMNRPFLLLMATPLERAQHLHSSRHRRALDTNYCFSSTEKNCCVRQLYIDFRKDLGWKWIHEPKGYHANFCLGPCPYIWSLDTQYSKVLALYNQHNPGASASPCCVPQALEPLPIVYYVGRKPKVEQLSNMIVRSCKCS
UniProt Q9WUD1: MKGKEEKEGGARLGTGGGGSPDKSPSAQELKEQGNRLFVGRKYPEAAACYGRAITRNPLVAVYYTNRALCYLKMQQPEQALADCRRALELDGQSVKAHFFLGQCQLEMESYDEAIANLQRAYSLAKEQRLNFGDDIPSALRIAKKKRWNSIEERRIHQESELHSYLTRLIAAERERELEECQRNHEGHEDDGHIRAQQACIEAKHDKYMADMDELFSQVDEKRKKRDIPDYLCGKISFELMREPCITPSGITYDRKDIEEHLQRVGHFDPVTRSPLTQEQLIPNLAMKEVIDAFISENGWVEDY

The experiment deals with TGF-β1 (bait of the pull-down for mass spectrometry) (UniProt P04202). Briefly: affinity purification with mass spectrometry; pull-down samples of TGF-β1 and of PKA, in-gel trypsin digestion, Q Exactive.

Results are given in words; binding and its absence hold for the method and conditions named. Binding seen in cells or lysates may run through a third protein. Here binding means that the protein was enriched with, or labelled near, the bait; the list need not be complete.

With “CHIP (found by mass spectrometry) (from UniProt Q9WUD1 1-304) (enzyme)”, the binding result is given as “binds”.
